Experimental data taken from PubChem BioAssay AID2417 (National Center for Advancing Translational Sciences (NCATS), 2010).
About 4,300 (3.1%) of roughly 140,000 compounds were called active. The inconclusive results got no clear call from the source; some entries with a clear call stand among them for comparison.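 Rule for the calls: active = readout at or below -70, meaning at least 70% loss of cells showing the perinucleolar compartment, a nuclear body marking cancer cells; inconclusive = readout between -30 and a set limit; inactive = the rest.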

Assay: High Content Assay for Compounds that inhibit the Assembly of the Perinucleolar Compartment;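 note: plate controls were DMSO wells for no effect and camptothecin positive control wells for full effect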
Conditions: PC3M PTB-GFP, PNC prevalence imaging, 16 h; at 10 µM; hits give low values
In short: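 PC3M cells stably expressing PTB-GFP, 750–1000 cells/well, treated 16 h at 37 °C with compound (23 nl of library stock), in duplicate. After paraformaldehyde fixation and Hoechst stain, imaged at 20x; PNC prevalence scored by image analysis.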

Row | Structure (SMILES) | activity change (PNC), negative = inhibition
1 | Cn1c(=O)oc2cc(S(=O)(=O)NCCN3CCN(c4ccccc4F)CC3)ccc21 | inconclusive: -42.2%
2 | O=C(Nc1nnc(SCc2ccccc2F)s1)c1ccco1 | inconclusive: -36.3%
3 | O=C(CCN1c2ccccc2Sc2ccccc21)OCc1nnc(-c2ccccc2)o1 | inconclusive: -35.3%
4 | CCOc1c(Cl)cc(C(=O)Nc2ccccc2C(=O)O)cc1Cl | inactive: 110%
5 | CN(C)CCNC(=O)Cc1ccc([N+](=O)[O-])cc1 | inactive: 15.1%
6 | CCC(=O)N1CCN(c2ccc(Cl)cc2NC(=O)Cc2ccccc2)CC1 | inactive: 20.6%
7 | Cc1ccc(SCC(=O)OCn2nnc3ccccc3c2=O)cc1C | inconclusive: -42.4%
8 | Cc1cccc(NC(=S)N=Nc2c(O)[nH]c3ccccc23)c1 | inconclusive: -30.1%
9 | C=CCNC(=O)/C(C#N)=C\c1cc(Cl)c(O)c(OCC)c1 | inactive: -28%
10 | O=C1OCCC1Sc1ncnc2sc3c(c12)CCC3 (configuration not stated) | inactive: 238%
11 | CCOc1cc(/C=C2\SC(=N)N(c3nccs3)C2=O)ccc1OCCN1CCOCC1 | inconclusive: -63%
12 | O=C(Nc1ccccc1C(=O)Nc1ccccc1C(=O)NCc1ccco1)c1ccco1 | inconclusive: -45.3%
13 | CCCCC(=O)NNC(=S)NC(=O)c1cccc([N+](=O)[O-])c1 | inactive: 4.61%
14 | C=CCn1c(SCC(=O)NC(=O)NCc2ccco2)nc2sc(C)c(C)c2c1=O | inconclusive: -67.6%
15 | Cc1ccccc1CS(=O)(=O)Cc1ccc(C(=O)NCCCN2CCOCC2)o1 | active: -89.8%
16 | Cc1occc1-c1nnc(SCC(=O)Nc2ccccc2)n1CCc1ccccc1 | inconclusive: -37.8%
17 | Cc1cc(/C=C2\SC(=S)NC2=O)c(C)n1C | inconclusive: -36.3%
18 | Cc1ccc(-n2c(C3CC3c3ccc(Cl)cc3)n[nH]c2=S)cc1 (configuration not stated) | inconclusive: -32.8%
19 | Clc1ccc(-c2nc3cnccn3c2Nc2ccc3c(c2)OCO3)cc1 | inconclusive: -35.8%
20 | CCC(CC)NC(=O)C1CCN(S(=O)(=O)c2cccs2)CC1 | inconclusive: -54.8%
21 | CCCc1cc(=O)oc2cc(OCC(=O)N3CCc4ccccc43)ccc12 | inactive: -11.9%
22 | Cc1cc(C)c[n+](-c2[nH]c(=O)sc2/C=N/NC([S-])=Nc2ccccc2)c1 | inactive: 9.05%
23 | CC(C)(CNCC(O)c1ccccc1)N1CCOCC1 (configuration not stated) | inconclusive: -45.5%

Rewritten comma-delimited: part of the list above
Row,Structure (SMILES),"activity change (PNC), negative = inhibition"
21,CCCc1cc(=O)oc2cc(OCC(=O)N3CCc4ccccc43)ccc12,inactive: -11.9%
22,Cc1cc(C)c[n+](-c2[nH]c(=O)sc2/C=N/NC([S-])=Nc2ccccc2)c1,inactive: 9.05%

More records:

Row | Structure (SMILES) | activity change (PNC), negative = inhibition
24 | O=C(NCc1ccc(Cl)cc1)C1CCCN(S(=O)(=O)c2cnc[nH]2)C1 (configuration not stated) | inconclusive: -74.7%
25 | CN(c1ccccc1C(=O)N1CCN(c2cccc(Cl)c2)CC1)S(C)(=O)=O | inconclusive: -36.9%
26 | c1ccc(OCc2nc3c4c(ncn3n2)-c2ccccc2CC42CCCC2)cc1 | active: -125%
27 | O=c1ccc2cc(S(=O)(=O)N3CCOCC3)ccc2o1 | inconclusive: -47.4%
28 | O=C(Nc1ccc(Cl)cc1)c1ccncc1 | inconclusive: -40.1%
29 | O=C(NCc1ccccc1)c1ccc(-c2ccc(F)cc2)o1 | inactive: 32.7%
30 | CC(C)C(=O)NC(=S)Nc1ccccc1C(=O)Nc1ccccc1 | inactive: 93.7%
31 | CN(C)CCCN1C(=O)C(=O)/C(=C(/O)c2ccccc2)C1c1ccccn1 (configuration not stated) | inconclusive: -41.1%
32 | CNC(=S)N1CCN(c2ccccn2)CC1 | inactive: -10.5%
33 | CN1CCN(CC#CCn2c3ccccc3c3ccccc32)CC1 | inconclusive: -55.5%
34 | CCOC(=O)C1CCN(C(=O)c2ccc(Br)o2)CC1 | inactive: -5.7%
35 | O=C(Cc1ccccc1)NNS(=O)(=O)c1ccc([N+](=O)[O-])cc1 | inactive: 3.03%
36 | N#Cc1c(/N=C/c2ccc(Br)s2)sc2c1CCC2 | active: -100%
37 | O=C(CSCc1ccc(Br)cc1)Nc1ccc(S(=O)(=O)N2CCOCC2)cc1 | inactive: 39.1%
38 | CC(C)CNS(=O)(=O)c1ccc(CCC(=O)N2CCN(Cc3ccc4c(c3)OCO4)CC2)cc1 | inactive: 154%
39 | O=C(c1ccc(N2CCOCC2)cc1)c1cccs1 | inconclusive: -75.6%
40 | COc1ccc(-n2cnnc2SCc2ncc(-c3ccccc3)o2)cc1 | inactive: 8.17%
41 | COc1ccccc1Oc1c(C)oc2c(CN(C)C)c(O)ccc2c1=O | inconclusive: -49%
42 | O=C(Nc1ccc(-c2noc(COc3ccccc3Cl)n2)cc1)c1ccco1 | inconclusive: -37.4%
43 | Cc1ccc(C(=O)c2cc([N+](=O)[O-])ccc2N2CC(C)OC(C)C2)cc1 (configuration not stated) | inactive: -17.8%
44 | COC(=O)c1ccc(CSc2nc(-c3ccco3)cc(C(F)(F)F)n2)o1 | inconclusive: -58.7%
45 | COc1ccc(Br)cc1C(=O)Nc1ccccc1-c1ccccc1 | inactive: -16.3%
46 | CCn1c2ccccc2c2cc(NC(=O)c3cccc([N+](=O)[O-])c3)ccc21 | inconclusive: -35%

Look-ups from the list:
In activity change (PNC), negative = inhibition, c1ccc(OCc2nc3c4c(ncn3n2)-c2ccccc2CC42CCCC2)cc1 shows active: -125%
In activity change (PNC), negative = inhibition, Cc1ccc(C(=O)c2cc([N+](=O)[O-])ccc2N2CC(C)OC(C)C2)cc1 (configuration not stated) shows inactive: -17.8%

Continued.

Row | Structure (SMILES) | activity change (PNC), negative = inhibition
47 | CN(Cc1ccccc1)C(=S)NC(=O)c1ccc(-c2ccccc2)cc1 | inconclusive: -59.5%
48 | Nc1nc(-c2c[nH]c3ccccc23)cs1 | inactive: 3.97%
49 | Cc1nnc(SCC(=O)N2CCc3ccccc3C2)n1-c1ccccc1 | inconclusive: -45.8%
50 | c1ccc(-c2ccc(-c3nc(-c4ccncc4)no3)cc2)cc1 | inconclusive: -51.5%
51 | Nc1nonc1-c1noc(-c2ccccc2Br)n1 | inconclusive: -48.6%
52 | COC(=O)c1ccc(CSc2nncn2C)cc1 | inconclusive: -30.4%
53 | N#Cc1ccc(/C=N/N=C(N)N)cc1 | inactive: -19.8%
54 | CCOC(=O)C1=NN(c2ccccc2C)C2=NC(C)=C(C(=O)OC)C(c3cccc(OC)c3)N12 (configuration not stated) | inconclusive: -61%
55 | C(=N\n1cnnc1)/c1ccccn1 | inconclusive: -30.3%
56 | COC(=O)c1cc2cc(NS(=O)(=O)c3ccc(C)cc3)ccc2s1 | active: -100%
57 | O=C(CSc1nc2ccsc2c(=O)n1NC(=O)c1ccccc1)Nc1nccs1 | inconclusive: -67.4%
58 | Cc1cc(NC(=O)CSc2cc(Cl)ccc2Cl)n(-c2ccccc2)n1 | inconclusive: -50.1%
59 | O=C(/C=C/c1ccccc1)N1CCC(c2ccccc2)C1 (configuration not stated) | inactive: 107%
60 | Cc1cccc(N)c1SC1CCCCC1O (configuration not stated) | inconclusive: -30.6%
61 | CC1CCC(NC(=O)Cn2c(=O)[nH]c3ccsc3c2=O)CC1 (configuration not stated) | inactive: -27.3%
62 | CCOC(=O)c1cnc(SC2CC(=O)N(c3cccc(OC)c3)C2=O)nc1N (configuration not stated) | inconclusive: -55.3%
63 | Cc1cc(C(=O)N2CCN(c3ncccn3)CC2)c(C)o1 | inconclusive: -49%
64 | Cc1ccc(N2CCN(c3ccc(NCc4nc5ccccc5n4C)cc3)CC2)cc1 | inconclusive: -73.3%
65 | O=C(CCCNS(=O)(=O)c1ccccc1)NCc1ccco1 | inactive: 5.08%
66 | O=C(CSc1nnnn1-c1ccccc1)Nc1ncc2c(n1)CC(c1ccccc1)CC2=O (configuration not stated) | inconclusive: -40.9%
67 | CCOC(=O)c1c(COc2ccccc2)oc2ccc(O)cc12 | inconclusive: -48.7%
68 | COc1ccccc1Nc1cc(C(=O)NCCCN2CCOCC2)c2ccccc2n1 | inconclusive: -54.2%
69 | O=C1CC(C(=O)Nc2ccc(O)c(C(=O)O)c2)C(c2ccccc2)O1 (configuration not stated) | inconclusive: -46%

Row | Structure (SMILES) | activity change (PNC), negative = inhibition
70 | Cc1ccc(NC(=O)c2ccc(CSc3nnc(-c4ccncc4)n3C)cc2)cc1 | inconclusive: -34.4%
71 | CCOc1ccccc1Oc1c(C)oc2cc(OC(=O)N3CCOCC3)ccc2c1=O | inconclusive: -38%
72 | CCCCCNC(=O)c1cccnc1SCC(=O)Nc1ccccc1OC | active: -119%
73 | COc1ccc(/C=N/NC(=O)Cn2cnc3ccccc3c2=O)cc1OC | inconclusive: -69.7%
74 | FC(F)(F)c1ccc(N=Cc2sc(N3CCOCC3)nc2-c2ccccc2)cc1 | inactive: 54.1%
75 | COc1cc(-c2cc(N)n(S(=O)(=O)c3ccc(F)cc3)n2)cc(OC)c1OC | inconclusive: -50.6%
76 | O=C(O)C1C2C=CC(O2)C1C(=O)Nc1ccc(S(=O)(=O)Nc2ccccc2)cc1 (configuration not stated) | inactive: -19%
77 | O=C(COc1ccc(Br)cc1)N(Cc1ccccc1)c1ccccn1 | inactive: 17.7%
78 | Cc1ccccc1OCc1nnc(SCc2cc(=O)[nH]c3ccccc23)n1-c1ccccc1 | inactive: 3.19%
79 | Cc1cc(N/N=C/c2c(O)ccc3ccccc23)nc(-c2ccccc2O)n1 | inactive: 5.09%
80 | CCOC(=O)c1c(C)n(-c2ccc(C)cc2)c2c(C(C(C)=O)C(=O)O)c(Br)c(O)c(O)c12 (configuration not stated) | inconclusive: -32.1%
81 | O=c1c2c3c(sc2n2cnnc2n1-c1ccccc1)N(Cc1ccccc1)CCC3 | inconclusive: -37.3%
82 | O=C(O)c1ccc(NS(=O)(=O)c2cc(Cl)ccc2Cl)cc1O | inactive: -8.39%
83 | CCCc1cc(C(N)=O)c(NC(=O)C2CCCO2)s1 (configuration not stated) | inactive: 21.5%
84 | O=C(c1ccc(N2C(=O)C3C4c5ccccc5C(c5ccccc54)C3C2=O)cc1)N1CCOCC1 (configuration not stated) | inconclusive: -30.3%
85 | Cc1ccccc1Cn1c(CN2CCN(C(=O)c3ccco3)CC2)nc2c1c(=O)n(C)c(=O)n2C | inactive: -24.4%
86 | O=C(CCl)Nc1cccc(S(=O)(=O)N2CCCCCC2)c1 | inactive: -7.44%
87 | CC(C)(C)c1ccc(C(=O)OCCNC(=O)c2c(Cl)nc3ccccn23)cc1 | inactive: 2.91%
88 | c1ccc(SCc2nc(-c3ccccn3)no2)cc1 | inconclusive: -46.2%
89 | CC(=O)c1c(C)[nH]c(C(=O)CSc2nnc(-c3ccccc3)o2)c1C | inconclusive: -35.8%
90 | Clc1cc(Cl)cc(Nc2ncn[nH]2)c1 | inconclusive: -37.9%
91 | COc1cc(OC)cc(-c2n[nH]c(=S)n2-c2ccc3c(c2)OCO3)c1 | active: -104%
92 | COc1ccc(-c2ccc(Nc3ccc(S(=O)(=O)N4CCCC4)cc3)nn2)cc1OC | inactive: 7.04%
